Laboratory results from PMC7819943, “Rice protein-binding microarrays: a tool to detect cis-acting elements near promoter regions in rice”.
The list shows a part of the results.

The sequences below were run against T1, OsSMF1 (Oryza sativa, UniProt Q6ZLB0 1-436) (assay: protein-binding microarray (RPBM); PBS, 2% BSA, 51.3 ng/ul salmon testes DNA, 50 uM zinc acetate, 200 nM TF, 25 C, 1 h; high values mean tight binding). Conditions: protein: recombinant; tags: N-terminal polyhistidine and DsRed monomer fusion (pET32a); chain copies: 2; label: CyDye5-dUTP incorporated in the synthesized complementary strand; 3' TTTTT single-stranded linker to array surface; dsDNA, one strand shown.
T1 sequence: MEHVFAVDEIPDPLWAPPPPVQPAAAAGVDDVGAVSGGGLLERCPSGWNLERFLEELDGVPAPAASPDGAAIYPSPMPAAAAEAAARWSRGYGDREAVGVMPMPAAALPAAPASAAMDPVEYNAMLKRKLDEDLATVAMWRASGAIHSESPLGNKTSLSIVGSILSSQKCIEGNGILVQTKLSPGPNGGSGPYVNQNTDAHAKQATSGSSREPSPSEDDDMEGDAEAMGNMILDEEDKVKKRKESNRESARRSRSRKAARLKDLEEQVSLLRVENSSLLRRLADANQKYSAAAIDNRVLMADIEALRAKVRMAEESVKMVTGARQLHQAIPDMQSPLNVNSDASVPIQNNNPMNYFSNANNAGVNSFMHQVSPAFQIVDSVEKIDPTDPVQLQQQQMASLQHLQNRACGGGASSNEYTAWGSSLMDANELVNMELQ
Summary of the method: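 Transcription factors were made in E. coli BL21-CodonPlus as N-terminal fusions to a polyhistidine tag and DsRed, then purified on Ni–NTA. After primer extension with Cy5-dUTP and blocking with 2% BSA, a custom Agilent array was exposed for 1 h at 25 °C to 200 nM protein in PBS, 2% BSA, salmon testes DNA and 50 µM zinc acetate. Washed arrays were scanned on an Axon 4000B, and the binding signal is per-feature fluorescence intensity in arbitrary units.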

| Sequence | binding signal |
| --- | --- |
| TGTCTTTGAATCCACGTTGCTCGACATAGTGTTCTTTTGTCGGAGTCACCTAGTGCAG | 5460 fluorescence intensity (a.u.) |
| GGTGTGCTATCAATGATGGTGGGGCAACTAGGATGTGATGCGGAGTCACCTAGTGCAG | 3410 fluorescence intensity (a.u.) |
| GCGGGAGAACAGTGATGTGTAGGGTTTCAGGGGAATGGAGCGGAGTCACCTAGTGCAG | 7120 fluorescence intensity (a.u.) |
| CGTCTCATGAGTCATGATCCAACGTCATGCATGTATGTAACGGAGTCACCTAGTGCAG | 11400 fluorescence intensity (a.u.) |
| TCGCGATGACGAGCTCGGCCACCACCTCAACATCGTCCATCGGAGTCACCTAGTGCAG | 4500 fluorescence intensity (a.u.) |
| ATGCTCCAGACGGTCTACGTGTTCCCTCCCAACAATAAAACGGAGTCACCTAGTGCAG | 3260 fluorescence intensity (a.u.) |
| CCGGAGGAAGATCGGATTATACACGTTCTCTTGGATTCGACGGAGTCACCTAGTGCAG | 4570 fluorescence intensity (a.u.) |
| TAGGGTTCTGGTTCTCTCCCCTACAAATACCCACGTACTCCGGAGTCACCTAGTGCAG | 3240 fluorescence intensity (a.u.) |
| CATGGATAGGATAATCGTAACAATTATCTAGACAGTGATGCGGAGTCACCTAGTGCAG | 3140 fluorescence intensity (a.u.) |
| GTACATACGCTGACACTGTTGGTGCGCGTGTGCGTCTCCCCGGAGTCACCTAGTGCAG | 3810 fluorescence intensity (a.u.) |
| CCACTCGCTCTGCCACCGCATGCTCGATAGCCGCTTCCCCCGGAGTCACCTAGTGCAG | 4840 fluorescence intensity (a.u.) |
| AGCTCCACCCCTTCTGAGCTGGAGTTCAGTCATACAGGAGCGGAGTCACCTAGTGCAG | 3800 fluorescence intensity (a.u.) |
| AACAACAGGAGTGGTGCATGACAAATACTCCTACCTAGCACGGAGTCACCTAGTGCAG | 36400 fluorescence intensity (a.u.) |
| ACACTACTGGCACAAGGGCCGCGTCAGGGACTTGGTCATGCGGAGTCACCTAGTGCAG | 3970 fluorescence intensity (a.u.) |
| ACCTGATGAAGGGATCGATCGATAGTGAGGTGTGCAATGGCGGAGTCACCTAGTGCAG | 3840 fluorescence intensity (a.u.) |
| GTGCATGCGTGACGATGTCATGCTTGTGTGCCATCGGTGGCGGAGTCACCTAGTGCAG | 4500 fluorescence intensity (a.u.) |
| AGTGCCACCGTATGACGCATGATAACTGGTGTGGAGGCTGCGGAGTCACCTAGTGCAG | 4440 fluorescence intensity (a.u.) |
| CAAAATCAACCCGACTTCCAGGCTCCCAGCGCCACTGCGCCGGAGTCACCTAGTGCAG | 3440 fluorescence intensity (a.u.) |
| GTATATAATATGGTGTTGAGTGTCATTGGTGTATGCTTGACGGAGTCACCTAGTGCAG | 3560 fluorescence intensity (a.u.) |
| AAATCGACGAAGTCATTATAGTCGTAGATGTCTCTCTATTCGGAGTCACCTAGTGCAG | 32100 fluorescence intensity (a.u.) |
| TTGTTTGCAGATGCGCGCTCCGCTTAGAAAATAGCAGCAGCGGAGTCACCTAGTGCAG | 4380 fluorescence intensity (a.u.) |

Reprinted at random: 3 entries already listed.

| Sequence | binding signal |
| --- | --- |
| AAATCGACGAAGTCATTATAGTCGTAGATGTCTCTCTATTCGGAGTCACCTAGTGCAG | 32100 fluorescence intensity (a.u.) |
| GCGGGAGAACAGTGATGTGTAGGGTTTCAGGGGAATGGAGCGGAGTCACCTAGTGCAG | 7120 fluorescence intensity (a.u.) |
| CCGGAGGAAGATCGGATTATACACGTTCTCTTGGATTCGACGGAGTCACCTAGTGCAG | 4570 fluorescence intensity (a.u.) |

Going on with the list:

| Sequence | binding signal |
| --- | --- |
| GTGCATTAGTCCCTTAATCGTTTGTCATCAATAAACCAAACGGAGTCACCTAGTGCAG | 3390 fluorescence intensity (a.u.) |
| TAATATTTCACGAAGTTATTCAAACGTTCGATGTGGCAGGCGGAGTCACCTAGTGCAG | 3720 fluorescence intensity (a.u.) |
| ATTTATGATTAACATATATTATTATGTACAAGTAGGTGATCGGAGTCACCTAGTGCAG | 3570 fluorescence intensity (a.u.) |
| TACTAGAGAAACTTTATTGCACAAAAGGAAATTTATCCATCGGAGTCACCTAGTGCAG | 3410 fluorescence intensity (a.u.) |
| CCACCATGGATCCGACGTGGCACAACCACATTGGTCCCTCCGGAGTCACCTAGTGCAG | 17700 fluorescence intensity (a.u.) |
| CATTGCTTTGTTTGATCTTGTGTGCCAATAATTGATGAAACGGAGTCACCTAGTGCAG | 55900 fluorescence intensity (a.u.) |
| TAAAGGTCAAGAAATAGCAGTGAAGAGGCTCGCGAAGACTCGGAGTCACCTAGTGCAG | 35300 fluorescence intensity (a.u.) |
| GATATTACGATAAGAACATGGCGTAGTACGAGCTAGTATCCGGAGTCACCTAGTGCAG | 37100 fluorescence intensity (a.u.) |
| ACCATGCCACCATATGTCTGATTAGCACACTTCTTTTAAACGGAGTCACCTAGTGCAG | 15700 fluorescence intensity (a.u.) |
| AACACTCACTGACACGTGGACCCCACCCTCCCCTGGCCCCCGGAGTCACCTAGTGCAG | 25800 fluorescence intensity (a.u.) |
| AGCAGATAAGGTTTTGGAACGGCTGCTACACGTACGAACCCGGAGTCACCTAGTGCAG | 3640 fluorescence intensity (a.u.) |
| CAAAATGGAGAGCTAGCACACACGATAGGGACGGCTCGACCGGAGTCACCTAGTGCAG | 32600 fluorescence intensity (a.u.) |
| CAACTCCAGGATACCCTTGATGACTCGAGCTTCTTCAGCTCGGAGTCACCTAGTGCAG | 5160 fluorescence intensity (a.u.) |
| GGGCTGGGGAAAATGATCGACTACTTTTAACCATTTCAGTCGGAGTCACCTAGTGCAG | 3420 fluorescence intensity (a.u.) |
| GATCTGACGCATGAGTCGGCATGGAGGGCGTCCTGGTGAGCGGAGTCACCTAGTGCAG | 5090 fluorescence intensity (a.u.) |
| GACCGAGTCGTGCGCTGGTTGCATCCATCCTTTTCGCACACGGAGTCACCTAGTGCAG | 22200 fluorescence intensity (a.u.) |
| AAAATTCCTTCTAAATCAGCGGCTAGGTCTGTTTGAAGTTCGGAGTCACCTAGTGCAG | 3250 fluorescence intensity (a.u.) |
| CGCTCTCCAAGGTTGGGTGGCTATTTATGCGTGTATGGATCGGAGTCACCTAGTGCAG | 3260 fluorescence intensity (a.u.) |
| TCGCGCCACCGCGTCCGCCTCCCCTCGCGCCGCCGTGTCCCGGAGTCACCTAGTGCAG | 3760 fluorescence intensity (a.u.) |
| GGATTAATTAGTCTCAAAAGATTCGTCTCGCGGTTTCCAGCGGAGTCACCTAGTGCAG | 29400 fluorescence intensity (a.u.) |
| AAAACTTTACCATGTATCTAAACACCAACATGTAATATTGCGGAGTCACCTAGTGCAG | 34200 fluorescence intensity (a.u.) |
